Read-outs that look alike come from different tables or passages of the source. Results are given in words; binding and its absence hold for the method and conditions named. Binding seen in cells or lysates may run through a third protein. Some results given as binding are weak or reduced against the parent protein; the word gives no strength. Sequences can lack the tags named with a protein.

The chains behind the UniProt entries cited, without tags or fusion partners. Where a name states a change or a piece, a line headed by the entry shows the natural chain unless it says otherwise. Residues count along the entry.
UniProt O15260: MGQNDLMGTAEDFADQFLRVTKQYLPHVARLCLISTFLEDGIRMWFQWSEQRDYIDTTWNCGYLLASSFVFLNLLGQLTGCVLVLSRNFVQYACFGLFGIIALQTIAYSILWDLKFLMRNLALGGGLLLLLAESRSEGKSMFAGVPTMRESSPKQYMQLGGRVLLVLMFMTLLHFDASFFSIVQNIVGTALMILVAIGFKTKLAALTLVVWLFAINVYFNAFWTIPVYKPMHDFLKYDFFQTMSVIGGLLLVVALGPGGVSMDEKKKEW
UniProt Q62226, residues 25-198: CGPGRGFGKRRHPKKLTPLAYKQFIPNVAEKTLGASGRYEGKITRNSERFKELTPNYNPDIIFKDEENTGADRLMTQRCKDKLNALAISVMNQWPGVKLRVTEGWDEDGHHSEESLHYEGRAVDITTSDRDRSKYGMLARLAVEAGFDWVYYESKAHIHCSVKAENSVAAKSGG

Common to all, as to assay: pull-down; about 5 μg GST-SURF4^49–60 (WT or MT) on 10 μl GSH beads, incubated with 200 μl of 0.5 mg/ml lysate of transfected HEK293T cells in KOAc buffer (110 mM KOAc, 2 mM Mg(OAc)2, 20 mM Hepes, pH 7.2), 4 °C overnight; washed with 0.5 M KOAc buffer and KOAc buffer; immunoblot with anti-HA; only the target purified
Background: In western blotting, separated proteins are transferred to a membrane and probed.

The target in experiment [1] is T1, GST-tagged human SURF4^49–60 (predicted first luminal loop of surfeit locus protein 4) (human) (UniProt O15260).
T1 sequence: SEQRDYIDTTWN

The target of experiment [2] is T2, GST-tagged human SURF4^49–60 with E50, D53 and D56 substituted to alanine (triacidic motif-mutated) (human) (UniProt O15260).
T2 sequence: SAQRAYIATTWN

The target of experiment [3] is T1, GST-tagged human SURF4^49–60 (predicted first luminal loop of surfeit locus protein 4) (human). This is another data set of the same source.
The target in experiment [4] is T2, GST-tagged human SURF4^49–60 with E50, D53 and D56 substituted to alanine (triacidic motif-mutated) (human). This is another data set of the same source.

“C-terminal 3 × HA-tagged ShhN (aa:1–198), N-terminal fragment of sonic hedgehog (from UniProt Q62226 25-198) (domain or fragment)”: the binding entry in experiment [1] and in experiment [2] was “binds” each time.

B1: polybasic motif–depleted SFRP1-HA (aa 223–245 deleted) (protein, UniProt Q8N474)
chain: SEYDYVSFQSDIGPYQSGRFYTKPPQCVDIPADLRLCHNVGYKKMVLPNLLEHETMAEVKQQASSWVPLLNKNCHAGTQVFLCSLFAPVCLDRPIYPCRWLCEAVRDSCEPVMQFFGFYWPEMLKCDKFPEGDVCIAMTPPNATEASKPQGTTVCPPCDNELKSEAIIEHLCASEFALRMKIKEVKKENGDLVLYLKNGADCPCHQLDNLSHHFLIMGRKVKSQYLLTAIHKWDKKNKEFKNFMKKMKNHECPTFQSVFK
Regarding B1, the binding entry in experiment [3] was “binds”.

B2: C-terminal 3 × HA-tagged SFRP1 (secreted frizzled-related protein 1) (protein, UniProt Q8N474 32-314)
chain: SEYDYVSFQSDIGPYQSGRFYTKPPQCVDIPADLRLCHNVGYKKMVLPNLLEHETMAEVKQQASSWVPLLNKNCHAGTQVFLCSLFAPVCLDRPIYPCRWLCEAVRDSCEPVMQFFGFYWPEMLKCDKFPEGDVCIAMTPPNATEASKPQGTTVCPPCDNELKSEAIIEHLCASEFALRMKIKEVKKENGDKKIVPKKKKPLKLGPIKKKDLKKLVLYLKNGADCPCHQLDNLSHHFLIMGRKVKSQYLLTAIHKWDKKNKEFKNFMKKMKNHECPTFQSVFK
As for B2, the binding entry in experiment [3] and in experiment [4] was “binds” each time.

The values above are taken from paper PMC9731852.
